From ChEMBL document CHEMBL3988442, “University of Dundee, Small-Polar-MMV Screening Library” (2021).

Amino acid sequences for entries named in this document (tags omitted). Residues count along the entry.
UniProt P9WPC5, whole entry: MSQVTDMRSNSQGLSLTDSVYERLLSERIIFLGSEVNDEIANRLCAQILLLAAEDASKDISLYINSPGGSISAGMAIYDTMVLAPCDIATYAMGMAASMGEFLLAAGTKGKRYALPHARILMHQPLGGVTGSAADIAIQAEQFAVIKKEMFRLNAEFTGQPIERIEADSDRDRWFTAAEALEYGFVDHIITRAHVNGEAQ
UniProt P9WPC3, whole entry partner: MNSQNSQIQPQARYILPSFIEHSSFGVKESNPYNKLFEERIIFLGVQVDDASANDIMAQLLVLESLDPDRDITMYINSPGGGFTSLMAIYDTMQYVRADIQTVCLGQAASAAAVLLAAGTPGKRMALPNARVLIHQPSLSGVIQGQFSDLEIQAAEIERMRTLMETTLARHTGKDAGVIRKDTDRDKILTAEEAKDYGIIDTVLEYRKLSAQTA
UniProt Q4DA54, 1-478: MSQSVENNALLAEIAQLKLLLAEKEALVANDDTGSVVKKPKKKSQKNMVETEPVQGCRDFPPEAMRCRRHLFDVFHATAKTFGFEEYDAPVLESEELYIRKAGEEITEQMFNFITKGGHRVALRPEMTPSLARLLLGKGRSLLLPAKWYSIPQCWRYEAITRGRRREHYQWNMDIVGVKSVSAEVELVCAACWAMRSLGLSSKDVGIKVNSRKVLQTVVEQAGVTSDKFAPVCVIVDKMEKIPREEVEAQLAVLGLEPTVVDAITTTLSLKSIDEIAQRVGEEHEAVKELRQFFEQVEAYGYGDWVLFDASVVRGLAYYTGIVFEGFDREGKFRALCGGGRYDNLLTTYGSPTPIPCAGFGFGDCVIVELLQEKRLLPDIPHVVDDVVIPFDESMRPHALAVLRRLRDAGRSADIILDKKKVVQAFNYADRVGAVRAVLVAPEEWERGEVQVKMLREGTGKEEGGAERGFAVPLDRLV
UniProt Q8IDJ8, 1-583: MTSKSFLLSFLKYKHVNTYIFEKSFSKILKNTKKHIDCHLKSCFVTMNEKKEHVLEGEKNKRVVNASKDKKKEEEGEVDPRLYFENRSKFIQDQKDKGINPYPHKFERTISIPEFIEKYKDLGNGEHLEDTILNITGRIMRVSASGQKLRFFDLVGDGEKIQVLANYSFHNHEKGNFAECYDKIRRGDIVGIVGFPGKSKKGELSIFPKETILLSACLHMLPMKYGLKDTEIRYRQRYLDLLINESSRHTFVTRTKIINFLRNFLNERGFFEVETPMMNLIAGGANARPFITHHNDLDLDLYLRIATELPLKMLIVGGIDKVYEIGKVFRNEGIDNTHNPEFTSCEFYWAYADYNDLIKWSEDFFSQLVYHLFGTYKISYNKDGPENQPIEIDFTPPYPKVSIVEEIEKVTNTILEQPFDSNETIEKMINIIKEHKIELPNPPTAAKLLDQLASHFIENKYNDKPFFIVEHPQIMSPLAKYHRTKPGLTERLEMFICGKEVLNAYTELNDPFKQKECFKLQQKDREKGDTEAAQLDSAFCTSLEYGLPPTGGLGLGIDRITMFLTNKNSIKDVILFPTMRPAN
UniProt P9WNZ1, whole entry: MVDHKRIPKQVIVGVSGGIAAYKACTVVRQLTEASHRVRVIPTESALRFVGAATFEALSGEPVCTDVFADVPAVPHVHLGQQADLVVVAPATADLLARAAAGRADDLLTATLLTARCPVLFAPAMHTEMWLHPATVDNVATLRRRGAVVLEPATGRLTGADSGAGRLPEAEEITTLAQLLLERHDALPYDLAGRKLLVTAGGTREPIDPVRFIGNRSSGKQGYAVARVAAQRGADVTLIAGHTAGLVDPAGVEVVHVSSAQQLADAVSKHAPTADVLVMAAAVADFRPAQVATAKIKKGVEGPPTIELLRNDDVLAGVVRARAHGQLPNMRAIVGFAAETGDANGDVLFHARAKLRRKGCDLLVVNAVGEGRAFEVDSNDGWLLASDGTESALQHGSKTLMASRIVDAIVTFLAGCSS
UniProt I6X8D2, whole entry: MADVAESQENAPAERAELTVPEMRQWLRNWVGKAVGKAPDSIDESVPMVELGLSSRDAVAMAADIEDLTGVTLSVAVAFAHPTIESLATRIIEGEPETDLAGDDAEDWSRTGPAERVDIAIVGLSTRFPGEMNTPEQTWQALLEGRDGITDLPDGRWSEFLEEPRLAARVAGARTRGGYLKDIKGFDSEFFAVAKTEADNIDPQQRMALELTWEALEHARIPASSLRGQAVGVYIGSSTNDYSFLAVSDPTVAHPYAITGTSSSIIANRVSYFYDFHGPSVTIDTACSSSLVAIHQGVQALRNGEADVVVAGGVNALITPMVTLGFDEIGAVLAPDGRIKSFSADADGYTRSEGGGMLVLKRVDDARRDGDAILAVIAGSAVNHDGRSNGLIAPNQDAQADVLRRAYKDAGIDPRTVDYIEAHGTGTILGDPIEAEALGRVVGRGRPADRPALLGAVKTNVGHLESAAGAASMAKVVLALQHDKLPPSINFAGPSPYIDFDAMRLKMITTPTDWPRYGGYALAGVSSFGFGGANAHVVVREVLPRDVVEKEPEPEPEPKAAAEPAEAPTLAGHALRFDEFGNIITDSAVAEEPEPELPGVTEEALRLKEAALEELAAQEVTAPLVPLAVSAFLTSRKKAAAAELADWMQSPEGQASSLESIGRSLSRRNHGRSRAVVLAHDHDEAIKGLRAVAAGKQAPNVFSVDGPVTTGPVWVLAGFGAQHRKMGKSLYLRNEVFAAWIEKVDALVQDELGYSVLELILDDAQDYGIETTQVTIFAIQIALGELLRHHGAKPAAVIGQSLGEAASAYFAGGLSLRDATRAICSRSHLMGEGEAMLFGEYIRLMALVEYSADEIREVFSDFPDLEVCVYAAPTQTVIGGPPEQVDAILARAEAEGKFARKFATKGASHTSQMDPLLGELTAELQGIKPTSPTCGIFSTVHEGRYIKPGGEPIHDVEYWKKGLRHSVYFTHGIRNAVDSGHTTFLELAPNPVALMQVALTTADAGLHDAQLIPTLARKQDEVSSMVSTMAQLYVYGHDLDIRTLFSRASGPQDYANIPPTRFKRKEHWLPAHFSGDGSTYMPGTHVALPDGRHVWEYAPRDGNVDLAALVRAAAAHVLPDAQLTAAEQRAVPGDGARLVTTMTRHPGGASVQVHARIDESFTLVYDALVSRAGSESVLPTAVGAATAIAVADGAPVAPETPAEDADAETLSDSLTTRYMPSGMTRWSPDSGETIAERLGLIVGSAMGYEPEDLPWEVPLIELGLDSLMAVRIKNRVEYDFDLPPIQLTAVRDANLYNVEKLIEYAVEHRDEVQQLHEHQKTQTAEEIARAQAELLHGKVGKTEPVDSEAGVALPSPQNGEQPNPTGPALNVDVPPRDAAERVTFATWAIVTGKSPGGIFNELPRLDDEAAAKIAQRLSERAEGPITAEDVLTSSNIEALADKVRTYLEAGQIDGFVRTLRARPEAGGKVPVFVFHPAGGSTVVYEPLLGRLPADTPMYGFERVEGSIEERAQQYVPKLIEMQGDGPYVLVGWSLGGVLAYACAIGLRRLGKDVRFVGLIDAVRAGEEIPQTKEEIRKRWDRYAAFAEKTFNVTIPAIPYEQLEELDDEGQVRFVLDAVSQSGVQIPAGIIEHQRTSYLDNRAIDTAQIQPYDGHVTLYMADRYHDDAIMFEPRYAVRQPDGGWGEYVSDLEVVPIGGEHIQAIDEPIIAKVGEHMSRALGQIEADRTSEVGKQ

Results are given as percent effect.
The controls that fix the scale are not given in the record; negative values are as filed.
This is an unselected part of the compounds tested.
Two or more numbers in one place are separate tests of the same structure; such repeats can differ widely.
A dash means the value is not listed here; it may have been measured.

ClpP1P2: 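Protease assay of ClpP1P2, read by the AMC dye that it sets free. Target: ClpP1P2, Mycobacterium tuberculosis (UniProt P9WPC5 and UniProt P9WPC3). Concentration: 50 µM. Higher reads as stronger inhibition, judged from the few compounds that gave an IC50. Most other retested compounds had strongly negative values. Size under these conditions: about 69,000 compounds, about 10 of them at 50% or above in at least one test.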
TcHisRS: 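Enzyme assay of histidyl-tRNA synthetase; the read-out is not stated. Target: Histidine-tRNA ligase, Trypanosoma cruzi CL Brener (UniProt Q4DA54). Concentration: 30 µM. Direction is inferred from retests: higher values go with stronger inhibition. Size under these conditions: about 69,000 compounds, about 31 of them at 50% or above in at least one test.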
PfKRS1: 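Lysine-tRNA ligase, Plasmodium falciparum 3D7 (UniProt Q8IDJ8). Enzyme assay of the cytosolic lysyl-tRNA synthetase in 384-well plates, read by luminescence. Concentration: 30 µM. Direction is inferred from only a few compounds that gave an IC50; most scored high, so higher reads as stronger inhibition. About 69,000 compounds were tested under these conditions; 0.071% (about 49) showed 50% or more at least once.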
CoaBC: 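Coenzyme A biosynthesis protein CoaBC, Mycobacterium tuberculosis (UniProt P9WNZ1). Enzyme assay of CoaBC with a phosphate dye (Biomol Green) read at 650 nm. Concentration: 30 µM. Direction is inferred from only a few compounds that gave an IC50; most scored high, so higher reads as stronger inhibition. Most strong results did not repeat in a second test. Size under these conditions: about 67,000 compounds, about 40 of them at 50% or above in at least one test.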
Leishmania in macrophages: 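Cell assay of Leishmania donovani living inside macrophages; the read-out is not stated. Concentration: 30 µM. Higher reads as stronger inhibition (inferred: compounds with an IC50 in retests scored well above the rest). Size under these conditions: about 69,000 compounds, about 1,000 of them at 50% or above in at least one test.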
Pks13 thioesterase: 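Enzyme assay of the thioesterase domain of polyketide synthase 13; the read-out is not stated. Target: Polyketide synthase Pks13, Mycobacterium tuberculosis (UniProt I6X8D2). Tested at 30 µM. The record gives no direction; the compounds picked for IC50 retests had high values, so higher reads as stronger inhibition. Size under these conditions: about 67,000 compounds, about 300 of them at 50% or above in at least one test.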

compound	ClpP1P2	TcHisRS	PfKRS1	CoaBC	Leishmania in macrophages	Pks13 thioesterase
[H][C@@]12CCN(C(=O)c3cc(C)on3)C[C@@]1([H])O[C@H](c1nc(C)cs1)C2	-	-	-	-	-2.84	-
CCc1nccn1CCC(=O)N1C[C@H]2CC[C@@H]1CN(C(=O)N(C)C)C2	-5.542	2.186	2.056	-4.156	-	-18.07
c1cnn(CCN2CCOC(Cn3cccn3)C2)c1 (stereo not shown)	-0.7023	5.413	-0.6297	-8.579	24.53	-5.305
O=C(CNC(=O)c1c(F)cccc1Cl)Nc1ccc(F)cn1	-13.49	1.961	4.368	-0.2439	0.08067	1.382
O=C(CN1CCOCC1)Nc1ncc(Br)cc1Br	-5.406	5.699	0.6696	16.67	20.55	-5.86
Fc1ccc(C2CCCN2Cc2nc(Cc3ccccc3F)no2)cc1 (stereo not shown)	-15.02	2.242	3.494	3.807	19.08	-17.5
Cn1nc(C2CN(C(=O)c3cccnc3)C2)c2nccnc21	13.52	-1.064	2.187	3.186	-34.1	-1.853
O=C(c1ccncc1F)N1CC2CC1(C(=O)N1CCCC1)C2	-4.51	-5.825	0.9657	0.3861	-	-18.07
O=C(O)C(F)(F)F.[H][C@@]12C[C@H](C(=O)N3CCN(C)CC3)[C@@]([H])(CN(S(=O)(=O)CC(C)C)C1)O2	-	-	-	-	21.44	-
CNC(=O)C1CCN(Cc2nc(-c3ccc(SC)cc3)oc2C)C1 (stereo not shown)	-10.69	4.167	7.266	9.474	7.886	5.808
Fc1cccc2ncnc(NCC3(N4CCOCC4)CCSC3)c12 (stereo not shown)	-5.283	7.389	8.834	-0.3165	6.463	10.18
COCCOc1cccc(CNCc2ccc(-n3cncn3)nc2)c1	-4.535	4.464	7.763	0.8805	10.89	-17.06
CN1CCN(CCCN(C)S(=O)(=O)C2CCCCC2)CC1	-10.6	4.865	9.716	-22.22	22.52	-31.79
Cl.[H][C@@]12NCCCCC[C@@]1([H])N(S(=O)(=O)N1CCCC1)C[C@H]2c1cccc(F)c1	-	-	-	-	7.293 and -3.237	-
Clc1cccc(C(CNc2ncccn2)N2CCOCC2)c1 (stereo not shown)	-7.891	5.752	3.692	-0.4673	22.1	-7.465
NC(=O)c1cc2c(nc1CCOc1ccc(F)cc1)CCC2	10.47	7.463	0.6287	5.926	-8.596	-53.36
CN1CC(=O)N(c2ccsc2)CC12CCN(S(=O)(=O)C1CC1)C2 (stereo not shown)	-2.004	4.294	4.586	6.786	-	-1.135
Cc1nc(N2CC[C@@H](c3ccc4ccccc4c3)[C@H](O)C2)no1	-2.685	2.632	2.184	-1.85	18.28	-7.392
COCCO[C@H]1CCN(C(=O)c2ccno2)[C@H]1Cc1ccncc1.O=C(O)C(F)(F)F	-	-	-	-	22.31	-
O=C(C[S+]([O-])Cc1cccc(C(F)(F)F)c1)NC1CCCC1 (stereo not shown)	-2.734	9.524	6.664	-1.716	9.392	-40.14
Cc1ncsc1C(=O)N1CCCC(c2noc(C(C)C)n2)C1 (stereo not shown)	-12.44	0.813	2.591	5.485	-5.997	-13.61
O=C(Cn1nc2ccccc2n1)N1CCCn2cncc2C1	-6.287	5.6	0.9397	11.47	12.08	-1.557
Fc1ccc(-c2cnc(CN3CCCC3Cn3cccn3)o2)cc1 (stereo not shown)	-6.747	3.008	5.629	4.113	2.314	-20.46
Cn1cc(CN2CCCN(C(=O)c3ccccn3)CC2)cn1	-12.96	2.053	1.265	9.211	7.299	-28.06
[H][C@]12CC[C@]([H])(CN(c3ncccn3)C1)N(Cc1ccc(NC(C)=O)cc1)C2	-	-	-	-	2.537	-
O=S1(=O)c2cnccc2OC(COc2ccccc2)CN1CC1CC1 (stereo not shown)	4.942	-4.624	3.369	3.067	27.77	12.43
N#CCCN(CC(=O)Nc1ccc(Br)cc1Cl)Cc1cccnc1	-2.331	0.5952	3.787	1.34	-8.586	-15.33
O=C(O)C(F)(F)F.[H][C@@]12COC[C@]1(CNC(=O)COC)CN(c1ncc(F)cn1)C2	-	-	-	-	21.17	-
COc1cccc(CC(=O)N2CCCSCC2CN2CCCC2)c1 (stereo not shown)	-7.641	9.278	0.7809	-5.285	11.27 and 2.223	-38.12
CCC(C)N(Cc1cccnc1)C(=O)c1ncccc1O (stereo not shown)	0.1412	1.031	2.659	-5.896	-10.18	0.6975
N[C@H]1CC[C@@H](Nc2nccc(CCC(F)(F)F)n2)CC1	-1.706	-1.935	6.936	4.831	3.657	-10.11
O=C1CCC(=O)N1c1nn(Cc2c(F)cccc2Cl)cc1Cl	6.019	1.156	3.093	1.104	4.093	-28.62
NC(=O)CC1CCN(C(=O)NCc2ccccc2-n2cccn2)CC1	2.735	-1.887	4.534	-1.434	-3.071	-13.45
O=C(N1CCOCC1CO)C1(c2cccs2)CCCC1 (stereo not shown)	-19.63	3.415	7.052	2.635	19.15	-6.526
O=S(=O)(C1CC1)N1CCC[C@]2(C[C@@H](Oc3ccccn3)CO2)C1	-2.291	7.65	-6.318	-2.397	-	28.65
O=S(=O)(c1cccnc1)N1CCC(OCCCc2ccccc2)C1 (stereo not shown)	0.9356	3.922	4.964	-0.813	-11.87	-25.56
Cc1cnn(CC2CCCN2C(=O)CCc2c(C)nc(C)[nH]c2=O)c1 (stereo not shown)	-9.294	5	1.926	-11.2	-11.84	-1.748
Cc1ccc2c(c1)C1(CCN(C(=O)C3CC3)CC1)CC2N1CCOCC1 (stereo not shown)	5.849	7.097	8.715	-0.4831	-	-7.639
CCc1cnc(C)nc1N1CCC(Cc2cccc(C(=O)O)c2)C1 (stereo not shown)	-14.64	5.579	4.311	5.622	31.5	-0.659
CC(Nc1ccc(CN2CCCC2=O)cc1)c1ccc(C#N)cc1 (stereo not shown)	-7.935	0	2.186	-7.57	24.67	-4.452
Cn1cc(N2CCCC(Nc3ccc4c(c3)CCC(=O)N4)C2=O)cn1 (stereo not shown)	-5.458	9.189	5.315	4.545	-4.455	0.4367
CN(Cc1cnn(C)c1)C(=O)Cn1c(CS(C)(=O)=O)nc2ccccc21	-1.399	3.261	4.887	8.772	30.71	-20.41
COCC(=O)N1CCc2ccc(=O)n(CC3CC3)c2CC1	-1.864	10.61	3.321	-0.8485	24.56	10.83
Cc1cncc(C2CCN(Cc3ccsc3)CC2)n1	-15.38	3.788	2.632	-5.672	21.23	6.024
CCCn1[nH]cc/c1=N\C(=O)CN1CCCC1Cn1nc(C)nc1C (stereo not shown)	7.463	3.59	5.062	-5.466	30.07	-30.11
Cc1nc(C2CCCN(C(=O)c3c(C)nn4cccnc34)C2)no1 (stereo not shown)	-8.284	2.882	1.223	17.01 and 20.23	-51.93	-185.4
CCCC(C)CS(=O)(=O)NCCc1csc(N2CCCC2)n1 (stereo not shown)	-8.73	11.23	-1.006	10.87	65.07	-27.33
CC(=O)N1CCN(Cc2cccs2)CC2(CC(=O)N(C)C2)C1.O=C(O)C(F)(F)F (stereo not shown)	-	-	-	-	0.4296	-

Some entries from above, unchanged:

{"compound": "O=C(C[S+]([O-])Cc1cccc(C(F)(F)F)c1)NC1CCCC1", "stereo": "stereo not shown", "ClpP1P2": -2.734, "TcHisRS": 9.524, "PfKRS1": 6.664, "CoaBC": -1.716, "Leishmania in macrophages": 9.392, "Pks13 thioesterase": -40.14}
{"compound": "Cc1nc(N2CC[C@@H](c3ccc4ccccc4c3)[C@H](O)C2)no1", "ClpP1P2": -2.685, "TcHisRS": 2.632, "PfKRS1": 2.184, "CoaBC": -1.85, "Leishmania in macrophages": 18.28, "Pks13 thioesterase": -7.392}
{"compound": "N[C@H]1CC[C@@H](Nc2nccc(CCC(F)(F)F)n2)CC1", "ClpP1P2": -1.706, "TcHisRS": -1.935, "PfKRS1": 6.936, "CoaBC": 4.831, "Leishmania in macrophages": 3.657, "Pks13 thioesterase": -10.11}
{"compound": "CN(Cc1cnn(C)c1)C(=O)Cn1c(CS(C)(=O)=O)nc2ccccc21", "ClpP1P2": -1.399, "TcHisRS": 3.261, "PfKRS1": 4.887, "CoaBC": 8.772, "Leishmania in macrophages": 30.71, "Pks13 thioesterase": -20.41}
{"compound": "Fc1ccc(C2CCCN2Cc2nc(Cc3ccccc3F)no2)cc1", "stereo": "stereo not shown", "ClpP1P2": -15.02, "TcHisRS": 2.242, "PfKRS1": 3.494, "CoaBC": 3.807, "Leishmania in macrophages": 19.08, "Pks13 thioesterase": -17.5}
{"compound": "Cn1cc(CN2CCCN(C(=O)c3ccccn3)CC2)cn1", "ClpP1P2": -12.96, "TcHisRS": 2.053, "PfKRS1": 1.265, "CoaBC": 9.211, "Leishmania in macrophages": 7.299, "Pks13 thioesterase": -28.06}